According to PMC6925144, “A prospective compound screening contest identified broader inhibitors for Sirtuin 1” (Scientific Reports, 2019):
In all, about 3,200 compounds were measured (“TSA(without NAD+) / Primary screening (TSA) / delta Tm (K)”: median about -0.07, highest 2% from about 0.37 on). The list shows a part of the results.

Chains of the proteins cited; added tags and fusions are not shown. Residues count along the entry.
UniProt Q96EB6, 2-747 limits assumed: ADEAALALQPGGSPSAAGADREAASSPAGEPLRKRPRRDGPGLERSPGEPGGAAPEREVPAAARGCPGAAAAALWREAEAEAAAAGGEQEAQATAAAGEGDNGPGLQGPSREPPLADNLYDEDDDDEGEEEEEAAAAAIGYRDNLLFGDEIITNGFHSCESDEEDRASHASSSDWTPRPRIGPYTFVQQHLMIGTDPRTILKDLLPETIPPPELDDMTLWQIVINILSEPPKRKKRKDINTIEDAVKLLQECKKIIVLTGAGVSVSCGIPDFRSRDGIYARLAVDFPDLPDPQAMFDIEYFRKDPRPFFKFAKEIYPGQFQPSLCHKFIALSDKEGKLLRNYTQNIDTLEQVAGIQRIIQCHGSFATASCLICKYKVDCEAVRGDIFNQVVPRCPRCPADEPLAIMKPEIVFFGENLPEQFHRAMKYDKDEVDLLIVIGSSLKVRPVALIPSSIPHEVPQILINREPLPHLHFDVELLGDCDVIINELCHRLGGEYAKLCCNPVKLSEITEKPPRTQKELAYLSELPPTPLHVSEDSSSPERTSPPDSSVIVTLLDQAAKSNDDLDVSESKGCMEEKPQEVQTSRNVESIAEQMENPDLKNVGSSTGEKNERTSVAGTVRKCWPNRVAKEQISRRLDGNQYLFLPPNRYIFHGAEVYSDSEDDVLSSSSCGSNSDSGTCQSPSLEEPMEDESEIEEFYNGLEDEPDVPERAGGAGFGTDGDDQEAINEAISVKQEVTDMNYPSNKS

What follows are compounds tested against NAD-dependent deacetylase Sirtuin 1 (human, UniProt Q96EB6) (assay: primary screen, delta tm). Settings: 10 µM.
Parameters: single well (n = 1)
Procedure, shortened: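 Thermal shift of Sirtuin 1 measured without NAD+, compound at 10 µM (n = 1); value is ΔTm, with hits defined as ΔTm > 0.45 K or < −1.5 K. Hits retested at 5, 10, 20 µM (n = 4) and counterscreened on bovine carbonic anhydrase and ABL1 SH2 domain.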

SMILES | TSA(without NAD+) / Primary screening (TSA) / delta Tm (K)
CCN(CC)CCCNC(=O)Nc1ccc(S(N)(=O)=O)cc1 | -0.23 K
CNC(=O)CN(Cc1ccccc1)S(=O)(=O)c1ccc(Cl)cc1 | 0.27 K
Cc1cccc(NS(=O)(=O)c2cccc(C(=O)OCC(=O)NC(=O)NC34CC5CC(CC(C5)C3)C4)c2)c1 | 0.27 K
Cc1nn(-c2ccccc2)c(C)c1CCC(=O)Nc1c(C)n(C)n(-c2ccccc2)c1=O | 0.12 K
CC(C)n1cnnc1C1CCN(c2ncc(C(N)=O)cc2Cl)CC1 | -0.22 K
COCC(N)CN (stereo not drawn) | -0.18 K
O=C1CSc2ccc(C(=O)Nc3ccc(N4CCN(Cc5ccccc5)CC4)cc3)cc2N1 | -0.24 K
O=C(NCc1cccnc1Oc1cccc(F)c1)N1CCOc2ccccc2C1 | -0.15 K
COc1ccc2cc(CNC(=O)C3=COCCO3)ccc2c1 | -0.02 K
CCOC(=O)c1c(C)[nH]c(C(=O)CN(C)Cc2ccc(C)cc2)c1C | -0.08 K
CCCCc1ccc(N2CC(C(=O)N3CCN(c4cnccn4)CC3)CC2=O)cc1 (stereo not drawn) | -0.04 K
COCCNc1ncnc2ccsc12 | 0.02 K
CC(C)(C)OC(=O)NCCOc1cccc(NS(=O)(=O)c2ccc3c4c(cccc24)C(=O)N3)c1 | 0.06 K
Cc1nn(Cc2ccccc2Cl)c(C)c1-c1nc(-c2ccccc2)c(-c2ccccc2)[nH]1 | -0.08 K
CC(O)CNCc1cn(-c2ccccc2)nc1-c1cc2ccccc2o1 (stereo not drawn) | -0.01 K
O=C(c1nn(Cc2ccccc2)c(=O)c2ccccc12)N1CCN(Cc2ccncc2)CC1 | -0.04 K
COCCNCCCN | -0.02 K
Cc1nc(N2CCN(CCN3CCCC3)CC2)c2c(-c3ccccc3)csc2n1 | -0.05 K
FC(F)(F)c1cc(N2CCN(Cc3nc4ccccc4[nH]3)CC2)n2ncnc2n1 | -0.13 K
Cc1ccc2[nH]c(C)c(CC(=O)OCC(=O)N3CCC(C(N)=O)CC3)c2c1 | -0.12 K
O=C(Nc1cccc(S(=O)(=O)N2CCOCC2)c1)C1c2ccccc2Oc2ccccc21 | -0.13 K
Cc1c(C(=O)CSc2nnc(NCc3ccco3)s2)oc2ccccc12 | 0.02 K
O=C1NC(=S)NC(=O)C1=Cc1ccc(-c2ccccc2)s1 | -0.12 K

SMILES | TSA(without NAD+) / Primary screening (TSA) / delta Tm (K)
CN(C)C(=O)c1ccccc1NC(=O)NC(C)(C)c1ccc(F)cc1 | -0.27 K
Cc1cc(/N=C/c2c(O)ccc3ccccc23)ccc1I | -0.14 K
COc1cc(CC(=O)N2CC(C(N)=O)c3ccccc32)ccc1C (stereo not drawn) | -0.01 K
COc1ccccc1C1C(C(=O)c2ccc3c(c2)OCCO3)=C(O)C(=O)N1CCCN1CCOCC1 (stereo not drawn) | -0.12 K
COc1cc(CN(C)C(=O)Cc2c(F)cccc2Cl)ccc1OCc1ccccc1 | -0.05 K
NC(=O)c1cc(NC(=O)c2ccc(-c3ccccc3F)o2)ccc1Cl | 0.06 K
CC(NC(=O)CNC(=O)CNC(=O)c1cccs1)c1ccccn1 (stereo not drawn) | -0.23 K
COc1cc(C(C)=O)ccc1COc1ccc(C(=O)OCC(N)=O)cc1OC | 0.02 K
N#CCCn1cc(C(=O)CN2CCN(C(c3ccc(F)cc3)c3ccc(F)cc3)CC2)c2ccccc21 | 0.17 K
NS(=O)(=O)c1ccc(Br)c(C(=O)Nc2ccc(NC(=O)CN3CCOCC3)cc2)c1 | 0.07 K
CN(Cc1ccc(C(N)=O)cc1)S(=O)(=O)c1ccc2c(c1)CCC2 | 0.12 K
CCOc1ccc(C2C(C(=O)c3cc4ccccc4o3)=C(O)C(=O)N2CCCN2CCOCC2)cc1 (stereo not drawn) | -0.02 K
Cc1ccc2c(Cn3nnc(-c4ccccc4)n3)cc(=O)oc2c1C | -0.17 K
NCc1nc2cc(C(=O)O)ccc2[nH]1 | 0.16 K
CCc1nc2ccccc2n1CC(=O)N1CC(C)OCC1C (stereo not drawn) | 0.12 K
CCCOc1ccc(C2C(C(=O)c3sc(C)nc3C)=C(O)C(=O)N2CCCN2CCOCC2)cc1 (stereo not drawn) | -0.18 K
CCOc1ccc(C(=O)C2=C(O)C(=O)N(CCN3CCOCC3)C2c2ccc(OCC)cc2)cc1 (stereo not drawn) | -0.31 K
CC(CN)CCO (stereo not drawn) | -0.23 K
CCC(C)C(O)CN (stereo not drawn) | -0.08 K
Cn1c(Cl)c(C=O)c2cc(C=O)ccc21 | -0.12 K
Cc1ccc(N(C)S(=O)(=O)c2cccc(C(=O)Nc3c(C)cc(C)cc3Cl)c2)cc1 | -0.08 K
Cc1ccc(N(C)S(=O)(=O)c2cccc(C(=O)Oc3ccc4c(C)cc(=O)oc4c3)c2)cc1 | 0.19 K

Looked up above.
Cc1cc(/N=C/c2c(O)ccc3ccccc23)ccc1I | TSA(without NAD+) / Primary screening (TSA) / delta Tm (K): -0.14 K
COc1cc(C(C)=O)ccc1COc1ccc(C(=O)OCC(N)=O)cc1OC | TSA(without NAD+) / Primary screening (TSA) / delta Tm (K): 0.02 K
